Measurements reported in PubChem BioAssay AID1159584 (Peter MacCallum Cancer Centre, 2016)
Here is a random part of about 18,000 deposited reagents. Further read-outs or replicates are left out here. Not stated in the record: the amount of reagent, the time to read-out.

Purpose: 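Genes that CDH1-null MCF10A cells selectively depend on to survive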 (primary screen)
Cell system: human MCF10A breast epithelial cells, parental and CDH1-null
Knock-down reagent: siRNA against human genes
Measured: 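ATP luminescence (CellTiter-Glo) viability per line relative to mean mock wells over all plates, and the ratio of CDH1-null to parental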
Direction: CDH1-null / parental viability ratio: higher = CDH1-null cells survive relatively better than parental

Which result is listed for GPR162?
CDH1-null / parental viability ratio: 0.81

What is on record for CALCB?
CDH1-null / parental viability ratio: 1.63

For SLC35A1, what does the deposit list?
CDH1-null / parental viability ratio: 1.08

What is on record for C6orf47?
CDH1-null / parental viability ratio: 1.1

What did the screen give for NUBPL?
CDH1-null / parental viability ratio: 1.17

Which result is listed for ADAM29?
CDH1-null / parental viability ratio: 1.09

What is on record for AMY2A?
CDH1-null / parental viability ratio: 0.84

For ATP6AP1, what does the deposit list?
CDH1-null / parental viability ratio: 1.2

What did the screen give for APLF?
CDH1-null / parental viability ratio: 1.73

How did the screen score HHLA2?
CDH1-null / parental viability ratio: 0.92

Which result is listed for AMBN?
CDH1-null / parental viability ratio: 0.98

For BMF, what does the deposit list?
CDH1-null / parental viability ratio: 0.97

For GPR37, what was measured?
CDH1-null / parental viability ratio: 1.26

Which result is listed for MORF4L2?
CDH1-null / parental viability ratio: 0.9

With VCF1, what was measured?
CDH1-null / parental viability ratio: 0.85

With PRAME, what does the deposit list?
CDH1-null / parental viability ratio: 0.86

What did the screen give for CDC42EP1?
CDH1-null / parental viability ratio: 0.87

With ZNF23, what does the deposit list?
CDH1-null / parental viability ratio: 1.06

What did the screen give for KLK3?
CDH1-null / parental viability ratio: 1.42

With NEDD9, how do the results read?
CDH1-null / parental viability ratio: 1.15

With TIMM17B, what does the deposit list?
CDH1-null / parental viability ratio: 1.15

For DYRK1A, what does the deposit list?
CDH1-null / parental viability ratio: 0.98

What is on record for CLTCL1?
CDH1-null / parental viability ratio: 1.07

How did the screen score AFDN?
CDH1-null / parental viability ratio: 0.78

What did the screen give for PCDHGC4?
CDH1-null / parental viability ratio: 0.93

Which result is listed for PPP4R3B?
CDH1-null / parental viability ratio: 0.95

With H2AC8, how do the results read?
CDH1-null / parental viability ratio: 1.07

How did the screen score F10?
CDH1-null / parental viability ratio: 1.1

With SPMIP9, what was measured?
CDH1-null / parental viability ratio: 1.22

What did the screen give for XPR1?
CDH1-null / parental viability ratio: 1.37

What did the screen give for NETO2?
CDH1-null / parental viability ratio: 1.05

What did the screen give for SLC38A6?
CDH1-null / parental viability ratio: 1.38

What did the screen give for SF3A3?
CDH1-null / parental viability ratio: 1.36

With CST8, what was measured?
CDH1-null / parental viability ratio: 0.89

For DMBX1, what does the deposit list?
CDH1-null / parental viability ratio: 1.31
